Results are given in words; binding and its absence hold for the method and conditions named. Some binding calls cover weakened binding; strength is not graded here.
What was measured:
[1] = target: mouse ICOS expressed on the surface of CHO-S cells (mouse) (UniProt Q9WVS0); assay: flow cytometry, CHO-S cells expressing ICOS, purified IgG1
[2] = target: T1, human ICOS (protein used in the HTRF assay) (human) (UniProt Q9Y6W8); assay: HTRF, human IgG1 in HEK supernatant
T1 sequence: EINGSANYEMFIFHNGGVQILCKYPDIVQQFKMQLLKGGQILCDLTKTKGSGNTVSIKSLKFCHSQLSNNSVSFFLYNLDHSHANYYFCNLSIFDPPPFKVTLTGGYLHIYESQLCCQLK

[3] = target: T2, mouse ICOS (protein used in the HTRF assay) (mouse) (UniProt Q9WVS0); assay: HTRF, human IgG1 in HEK supernatant
T2 sequence: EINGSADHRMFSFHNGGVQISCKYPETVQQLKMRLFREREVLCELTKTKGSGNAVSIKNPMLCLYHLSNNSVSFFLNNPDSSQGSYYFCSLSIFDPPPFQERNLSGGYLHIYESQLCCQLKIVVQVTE

[4] = target: mouse ICOS expressed on the surface of CHO-S cells (mouse) (UniProt Q9WVS0); assay: Mirrorball, CHO-S cells expressing ICOS

binding [1]: binds | binding [2]: binds | binding [3]: binds | binding [4]: binds
B1: CL-61091 (antibody, human IgG1, V domains shown)
VH: QVQLMQSGTEVKKPGASVKVSCKTSGYTFTTYGITWVRQAPGQGLEWMGWISAYSGDTDYAQKFQGRVTVTTDTSTNTAYMELRSLKSDDTAVYYCARSSGWPHHYGMDVWGQGTTVTVSS
VL: DIVMTQSPLSLPVTPGEPASISCRSSQSLLHSNGFNYFDWYLQKPGQSPQLLIFLVSNRASGVPDRFSGSGSGTDFTLKISRVEAEDVGIYYCMQALQTPLTFGGGTKVEIK

Reference: patent US20260184791A1
